The values below come from patent publication US20150239990A1 (published 2015).

Sequences of proteins named here, by UniProt entry; tags and fusion partners are left off. Residues count along the entry.
UniProt P01584, residues 117-269: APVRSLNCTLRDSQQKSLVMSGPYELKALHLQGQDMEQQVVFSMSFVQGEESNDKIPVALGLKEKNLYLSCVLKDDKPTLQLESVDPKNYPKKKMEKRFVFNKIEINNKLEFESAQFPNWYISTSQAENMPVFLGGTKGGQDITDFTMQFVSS

The target of the assay is T1, biotinylated human IL-1Beta (human, UniProt P01584 117-269, biotinylated (positions not stated)).
T1 construct: In the assays it was biotinylated; also called biot-IL-1Beta
As to the kind of experiment: phage ELISA: biotinylated IL-1Beta captured on neutravidin, crude phage, anti-M13-HRP. The protocol:
Four clones for each Fab were tested to overcome clonal variation (due to bacterial growth, phage production efficiency and toxicity etc. . . . ). Phage ELISA was performed by capturing of biotinylated IL-1Beta on neutravidin coated Maxisorp plate and subsequent incubation of crude phage extract (i.e. bacterial medium). After extensive washing, bound phages were detected with an anti-M13-HRP monoclonal antibody.

No constants are given. Whether binding was seen depends on the method and setting. Some binding calls cover weakened binding; strength is not graded here. Sequences can lack the tags named with a protein.

B1: safe variant 1F2 (partially humanized, fused to human C-lambda and CH1), Fab displayed on phage (Fab, V domains shown)
VH: EVQLLESGGGLVQPGGSLRLSCAASGFTFSTYAMSWVRQAPGKGPEWVSGINTGGGSTGYADSVKGRFTISRDNSKNTLYLQMNSLRPEDTAVYYCAKDWMATTPWGQGTQVTVSS
VL: QTVVTQEPSFSVSPGGTVTLTCGLSSGSVTTNNYPGWFQQTPGQAPRTLIYNTNNRHSGVPSRFSGSILGNKAALTITGAQADDESDYYCALYMSSGSNNAVFGGGTKLTVLG
notes: also called safe 1F2
In the case of B1, the binding result is “binds”.
